The values below come from US20110250213A1 (JN BIOSCIENCES, published 2011).

This assay has as its target T1, cynomolgus CD122 (cynomolgus) (UniProt Q38J85).
T1 sequence (looked up): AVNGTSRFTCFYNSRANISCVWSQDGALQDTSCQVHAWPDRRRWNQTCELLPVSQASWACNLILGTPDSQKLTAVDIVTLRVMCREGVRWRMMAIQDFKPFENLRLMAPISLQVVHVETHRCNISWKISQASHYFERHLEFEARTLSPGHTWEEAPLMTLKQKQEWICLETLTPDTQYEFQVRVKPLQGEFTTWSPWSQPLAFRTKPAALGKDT
As to the kind of experiment: assay not specified.

Results are given in words; binding and its absence hold for the method and conditions named. Some results given as binding are weak or reduced against the parent protein; the word gives no strength.

B1: ABC2 (antibody, mouse IgG1, V domains shown)
VH: EVKLVESGGGLVQPGGSLRLSCATSGFTFSDFYMEWVRQPPGKRLEWIAASRNKANDYTTEYSASVKGRFIVSRDTSQSILYLQMNALRAEDTAIYYCARSYYRYDGMDYWGQGTSVTVSS
VL: QVVLTQSPVIMSASPGEKVTMTCSAISSVSYMYWYQQKPGSSPRLLIYDTSNLVSGVPVRFSGSGSGTSYSLTISRMEAEDAATYYCQQWNTYPYTFGGGTKLEIK
notes: Mouse IgG1/kappa purified from hybridoma; also called mouse anti-human CD122 monoclonal antibody ABC2
B1: the binding entry is reported as “binds”.

B2: ABC101 (antibody, mouse IgG2b, V domains shown)
VH: DVQLQESGPGLVKPSQTVSLTCTVTGYSITNDNHWWNWIRQVSGSKLEWMGYIDSSGSSDNNPSLKSQISITRDTSKNQLFLQLNSVTIEDIGTYYCARGGGRDYYGMDYWGQGTSVTVSS
VL: DIVLTQSPASLAVSLGQRATISCRASQSVSTSSYSYVHWYQQKPGQPPKLLIKYASNLESGVPARFSGSGSGTDFTLNIHPVEEEDTATYYCQHSWDIPFTFGGGTKLEIK
notes: Mouse IgG2b/kappa purified from hybridoma; also called mouse anti-human CD122 monoclonal antibody ABC101
Turning to B2, the binding entry is recorded as “binds”.
